Measurements: PubChem BioAssay AID256 (DTP/NCI, 2004)
The list is a part of this screen's results and no random one: it gathers tests that were run many times, whatever their T/C, doses with no T/C, and many T/C values between a quarter and a half above the control. Other doses and runs of a compound stand elsewhere. T/C gives the treated animals as a percentage of the vehicle group. Some doses have a count of surviving animals in place of a T/C: the source holds a T/C of zero for them, seemingly a mark for toxic or unscored doses. Some survivor counts are full or nearly so, which does not show that the dose was tolerated: survival well below the control is almost never listed, so the zero probably covers shortened survival too. Survivors were counted at the toxicity check, usually on the fifth day, unless a day is given; later deaths do not show. Schedule codes are those of the source, read here as Q, the interval in days (D) or hours (H), X, the number of doses. For survival time, the PubChem record calls one and a half times the control and up active, and a quarter to a half above the control has no call in these data; cut-offs in other NCI protocols can differ. Some T/C values carry the count of animals alive at the toxicity check (mostly the fifth day); without a count, all were alive then. Some entries hold several experiments; the results are listed from low to high.

Test system: CD2F1 mice, L1210 leukemia ip, survival T/C
Assay: NCI In Vivo Anticancer Drug Screen. Data for tumor model L1210 Leukemia (intraperitoneal) in CD2F1 (CDF1) mice
Conditions: higher T/C = longer survival
How it was run: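 Implant tumor; dose compound or vehicle; measure endpoint in both groups; report treated divided by control.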

[1] = T/C endpoint: mean survival time, dose: 400.0 mg/kg/injection, schedule: Q04DX002 (ip), vehicle: saline with Tween-80
[2] = T/C endpoint: mean survival time, dose: 100.0 mg/kg/injection, schedule: Q04DX003 (ip), vehicle: saline with Tween-80
[3] = T/C endpoint: mean survival time, dose: 400.0 mg/kg/injection, schedule: Q04DX003 (ip), vehicle: saline
[4] = T/C endpoint: mean survival time, dose: 12.5 mg/kg/injection, schedule: Q01DX009 (ip), vehicle: saline
[5] = T/C endpoint: mean survival time, dose: 25.0 mg/kg/injection, schedule: Q01DX009 (ip), vehicle: saline
[6] = T/C endpoint: mean survival time, dose: 50.0 mg/kg/injection, schedule: Q01DX009 (ip), vehicle: saline
[7] = T/C endpoint: mean survival time, dose: 100.0 mg/kg/injection, schedule: Q01DX009 (ip), vehicle: saline with Tween-80
[8] = T/C endpoint: mean survival time, dose: 200.0 mg/kg/injection, schedule: Q01DX009 (ip), vehicle: saline with Tween-80
[9] = T/C endpoint: mean survival time, dose: 400.0 mg/kg/injection, schedule: Q01DX009 (ip), vehicle: saline with Tween-80
[10] = T/C endpoint: mean survival time, dose: 400.0 mg/kg/injection, schedule: Q01DX001 (ip), vehicle: other
[11] = T/C endpoint: mean survival time, dose: 200.0 mg/kg/injection, schedule: Q04DX003 (ip), vehicle: saline with Tween-80
[12] = T/C endpoint: mean survival time, dose: 400.0 mg/kg/injection, schedule: Q04DX003 (ip), vehicle: saline with Tween-80

For `CC(=O)OC1CCC2(C)CCCC(O)C2(O)C1` (centres undefined), which survivor count (T/C endpoint: mean survival time, dose: 200.0 mg/kg/injection, schedule: Q04DX003 (ip), vehicle: acetone) is on record?
Its survivor count is 2 of 6.

And the survivor count (T/C endpoint: mean survival time, dose: 400.0 mg/kg/injection, schedule: Q04DX003 (ip), vehicle: acetone)?
Its survivor count is 2 of 6.

With `N=C(N)c1ccc(/C=C/c2ccc(C(=N)N)cc2O)cc1` as the compound, how does the survivor count (T/C endpoint: mean survival time, dose: 100.0 mg/kg/injection, schedule: Q01DX009 (ip), vehicle: water) read?
Its survivor count is 0 of 6.

For `O/N=C/C(O)(c1ccccc1)c1ccccc1`, which survivor count [1] is on record?
Its survivor count is 3 of 3.

With `CC1=Nc2cc(C)c(C)cc2N2C1=CC1=C(C(=O)c3cc4ccccc4cc3C1=O)C2C` (centres undefined) as the compound, how does the survivor count [2] read?
The survivor count was 3 of 3.

And the survivor count [3]?
The survivor count was 1 of 3.

Which results are given for `C/C=C/C[P+](C)(c1ccccc1)c1ccccc1`?
survivor count [4]: 0 of 3; survivor count [5]: 0 of 3; survivor count (T/C endpoint: mean survival time, dose: 50.0 mg/kg/injection, schedule: Q01DX009 (ip), vehicle: saline with Tween-80): 0 of 3; survivor count [6]: 0 of 3; survivor count [7]: 0 of 3; survivor count [8]: 0 of 3

Which results are given for `NC(=O)Nc1cc(NC(N)=O)cc(N(CCCl)CCCl)c1`?
T/C (T/C endpoint: mean survival time, dose: 20.0 mg/kg/injection, schedule: Q01DX009 (ip), vehicle: Klucel (hydroxypropylcellulose) (HPC)): 128 % of control; T/C (T/C endpoint: mean survival time, dose: 40.0 mg/kg/injection, schedule: Q01DX009 (ip), vehicle: Klucel (hydroxypropylcellulose) (HPC)): 130 % of control; survivor count (T/C endpoint: mean survival time, dose: 80.0 mg/kg/injection, schedule: Q01DX009 (ip), vehicle: Klucel (hydroxypropylcellulose) (HPC)): 0 of 6

How did the survivor count [9] turn out when `CC(=O)Nc1cccc2ccccc12` was run?
The survivor count was 5 of 6.

What does the source list for `C[C@]12CCC(=O)C=C1CC[C@@H]1[C@@H]2[C@@H](O)C[C@@]2(C)[C@H]1CC[C@]2(O)C(=O)COP(=O)(O)OCC1OC(n2ccc(N)nc2=O)C(O)C1O` (some centres undefined)?
T/C (T/C endpoint: mean survival time, dose: 20.0 mg/kg/injection, schedule: Q01DX005 (ip), vehicle: other): 126 % of control; T/C (T/C endpoint: mean survival time, dose: 30.0 mg/kg/injection, schedule: Q01DX005 (ip), vehicle: other): 129 % of control; T/C (T/C endpoint: mean survival time, dose: 40.0 mg/kg/injection, schedule: Q01DX005 (ip), vehicle: other): 144 % of control; T/C (T/C endpoint: mean survival time, dose: 60.0 mg/kg/injection, schedule: Q01DX005 (ip), vehicle: other): 144 and 146 % of control

What does the source list for `CC1=C(/C=C/C(C)=C/C=C/C(C)=C/C=O)C(C)(C)CCC1`?
survivor count (T/C endpoint: median survival time, dose: 100.0 mg/kg/injection, schedule: Q01DX005 (ip), vehicle: saline with Tween-80): 3 of 6; survivor count (T/C endpoint: median survival time, dose: 200.0 mg/kg/injection, schedule: Q01DX005 (ip), vehicle: saline with Tween-80): 0 of 6; survivor count (T/C endpoint: median survival time, dose: 400.0 mg/kg/injection, schedule: Q01DX005 (ip), vehicle: saline with Tween-80): 0 of 6

Which survivor count (T/C endpoint: mean survival time, dose: 12.5 mg/kg/injection, schedule: Q04DX002 (ip), vehicle: saline) does the source give for `C[N+]1(C)CCOC(O)(c2ccc(-c3ccccc3)cc2)C1` (centres undefined) here?
The survivor count was 0 of 3.

With `O=c1[nH]ccn1C1CCCCC1` as the compound, how does the T/C [10] read?
The T/C was 126 % of control [4 of 6 alive].

What about the survivor count [10] of the same compound?
Its survivor count is 1 of 6.

Which survivor count [9] does the source give for `CCCn1c(O)c(C=N)c(=O)[nH]c1=O` here?
Its survivor count is 2 of 6.

With `CS(=O)(=O)Nc1ccc(Nc2c3ccccc3nc3cc(Cl)ccc23)cc1` as the compound, how does the T/C [7] read?
The T/C was 133 % of control [5 of 6 alive].

What about the survivor count [8] of the same compound?
Its survivor count is 6 of 6.

What about the survivor count [11] of the same compound?
Its survivor count is 3 of 6.

What about the T/C (T/C endpoint: mean survival time, dose: 300.0 mg/kg/injection, schedule: Q04DX003 (ip), vehicle: saline with Tween-80) of the same compound?
Its T/C is 134 % of control [5 of 6 alive].

And the survivor count [3]?
Its survivor count is 6 of 6.

`COC(=O)CCC(C)C1CCC2C3C(O)CC4CC(O)CCC4(C)C3CC(O)C12C` (centres undefined) was tested. Which survivor count [8] did it give?
Its survivor count is 3 of 6.

What about the survivor count [9] of the same compound?
Its survivor count is 0 of 6.

How did the survivor count (T/C endpoint: mean survival time, dose: 10.0 mg/kg/injection, schedule: Q04DX003 (ip), vehicle: saline with Tween-80) turn out when `CC(=O)[O][Hg][O]C(C)=O` was run?
Its survivor count is 0 of 6.

What about the survivor count (T/C endpoint: mean survival time, dose: 20.0 mg/kg/injection, schedule: Q04DX003 (ip), vehicle: saline with Tween-80) of the same compound?
Its survivor count is 0 of 6.

What about the survivor count [2] of the same compound?
Its survivor count is 0 of 6.

And the survivor count [11]?
The survivor count was 0 of 6.

And the survivor count [12]?
The survivor count was 0 of 6.

What does the source list for `CC1=C(C)CS(=O)(=O)C1`?
survivor count [11]: 4 of 6; survivor count [12]: 0 of 6

How did the survivor count [1] turn out when `CCCCOc1ccc(Cl)cc1` was run?
Its survivor count is 1 of 3.

With `O=C(O)C(O)C(O)C(=O)O` (centres undefined) as the compound, how does the survivor count [9] read?
The survivor count was 0 of 6.

For `CCc1cccc[n+]1Cc1ccccc1`, which survivor count [4] is on record?
The survivor count was 3 of 3.

And the survivor count [5]?
The survivor count was 3 of 3.

And the survivor count [6]?
Its survivor count is 0 of 3.

Which survivor count (T/C endpoint: mean survival time, dose: 50.0 mg/kg/injection, schedule: Q04DX003 (ip), vehicle: saline with Tween-80) does the source give for `OC(c1ccccc1)c1cc(-c2ccccc2)c(-c2ccccc2)cc1C(O)c1ccccc1` (centres undefined) here?
The survivor count was 5 of 6.

What about the survivor count [2] of the same compound?
The survivor count was 2 of 6.

What about the survivor count [11] of the same compound?
The survivor count was 1 of 6.

What about the survivor count [12] of the same compound?
Its survivor count is 0 of 6.

What does the source list for `Nc1ncnc2c1c(Cl)cn2C1OC(CO)C(O)C1O` (centres undefined)?
survivor count (T/C endpoint: mean survival time, dose: 75.0 mg/kg/injection, schedule: Q01DX001 (ip), vehicle: saline): 1 of 6; survivor count (T/C endpoint: mean survival time, dose: 150.0 mg/kg/injection, schedule: Q01DX001 (ip), vehicle: saline): 0 of 6; survivor count (T/C endpoint: mean survival time, dose: 300.0 mg/kg/injection, schedule: Q01DX001 (ip), vehicle: saline): 0 of 6

For `CN(C)/C=N/N1C(=O)CSC1=S`, which survivor count (T/C endpoint: mean survival time, dose: 200.0 mg/kg/injection, schedule: Q04DX003 (ip), vehicle: saline) is on record?
Its survivor count is 1 of 6.

And the survivor count [3]?
The survivor count was 0 of 6.

`CC1(C)/C(=N/Nc2ccc([N+](=O)[O-])cc2[N+](=O)[O-])C=Cc2ccccc21` was tested. Which survivor count (T/C endpoint: mean survival time, dose: 50.0 mg/kg/injection, schedule: Q01DX009 (ip), vehicle: other) did it give?
Its survivor count is 6 of 6.

Which survivor count (T/C endpoint: mean survival time, dose: 100.0 mg/kg/injection, schedule: Q04DX002 (ip), vehicle: saline with Tween-80) does the source give for `O=C1NC(=O)C2C3C=CC(C3)C12` (centres undefined) here?
Its survivor count is 1 of 3.

What about the survivor count (T/C endpoint: mean survival time, dose: 200.0 mg/kg/injection, schedule: Q04DX002 (ip), vehicle: saline with Tween-80) of the same compound?
Its survivor count is 1 of 3.

What about the survivor count [1] of the same compound?
The survivor count was 0 of 3.

With `Clc1ccc2scc3c4ccccc4nc-3c2c1` as the compound, how does the survivor count (T/C endpoint: mean survival time, dose: 100.0 mg/kg/injection, schedule: Q01DX009 (ip), vehicle: saline) read?
The survivor count was 0 of 6.

What does the source list for `CCCCCCCCCCCCCC(=O)OC1C(CO)OC2C1Oc1nc(=N)ccn12` (centres undefined)?
T/C (T/C endpoint: mean survival time, dose: 12.5 mg/kg/injection, schedule: Q01DX009 (ip), vehicle: other): 144 % of control; survivor count (T/C endpoint: mean survival time, dose: 200.0 mg/kg/injection, schedule: Q01DX009 (ip), vehicle: other): 2 of 6

With `CCC1(OC(=O)CN)C(=O)OCc2c1cc1n(c2=O)Cc2cc3ccccc3nc2-1` (centres undefined) as the compound, how does the T/C (T/C endpoint: median survival time, dose: 3.75 mg/kg/injection, schedule: Q04HX004 (iv), vehicle: dextrose) read?
Its T/C is 126 % of control.

And the T/C (T/C endpoint: median survival time, dose: 3.75 mg/kg/injection, schedule: Q04HX004 (iv), vehicle: other)?
The T/C was 137 % of control.

What about the T/C (T/C endpoint: median survival time, dose: 15.0 mg/kg/injection, schedule: Q04DX002 (ip), vehicle: saline) of the same compound?
Its T/C is 138 and 143 % of control.

Which T/C (T/C endpoint: median survival time, dose: 140.0 mg/kg/injection, schedule: Q01DX005 (ip), vehicle: water) does the source give for `NC(=S)c1ncnc2c1ncn2C1OC(CO)C(O)C1O` (centres undefined) here?
The T/C was 126 and 135 % of control [5 of 6 alive].

And the survivor count (T/C endpoint: median survival time, dose: 280.0 mg/kg/injection, schedule: Q01DX005 (ip), vehicle: water)?
Its survivor count is 1 of 6.

For `CC(=O)OC1CC2CCC1(C)C2(C)C` (centres undefined), which survivor count [12] is on record?
Its survivor count is 6 of 6.

`CC(=O)NC1CCCCC1` was tested. Which survivor count [9] did it give?
Its survivor count is 0 of 6.
